## Results of single-concentration screens

Chains of the proteins cited; added tags and fusions are not shown. Residues count along the entry.
UniProt A4I591, 1-473: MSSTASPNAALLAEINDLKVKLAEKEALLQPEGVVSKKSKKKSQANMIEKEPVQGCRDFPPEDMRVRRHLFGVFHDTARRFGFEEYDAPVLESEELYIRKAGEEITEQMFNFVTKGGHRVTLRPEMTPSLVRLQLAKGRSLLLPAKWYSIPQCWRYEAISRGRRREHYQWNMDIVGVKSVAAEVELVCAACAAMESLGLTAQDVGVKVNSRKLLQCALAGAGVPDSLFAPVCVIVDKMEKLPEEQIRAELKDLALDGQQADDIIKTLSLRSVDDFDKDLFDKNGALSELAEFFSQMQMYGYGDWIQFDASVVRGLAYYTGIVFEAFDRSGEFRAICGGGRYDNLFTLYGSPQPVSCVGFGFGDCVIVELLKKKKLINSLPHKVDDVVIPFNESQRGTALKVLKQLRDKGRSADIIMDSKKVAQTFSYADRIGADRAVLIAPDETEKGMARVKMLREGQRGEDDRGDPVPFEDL
UniProt I6X8D2, whole entry: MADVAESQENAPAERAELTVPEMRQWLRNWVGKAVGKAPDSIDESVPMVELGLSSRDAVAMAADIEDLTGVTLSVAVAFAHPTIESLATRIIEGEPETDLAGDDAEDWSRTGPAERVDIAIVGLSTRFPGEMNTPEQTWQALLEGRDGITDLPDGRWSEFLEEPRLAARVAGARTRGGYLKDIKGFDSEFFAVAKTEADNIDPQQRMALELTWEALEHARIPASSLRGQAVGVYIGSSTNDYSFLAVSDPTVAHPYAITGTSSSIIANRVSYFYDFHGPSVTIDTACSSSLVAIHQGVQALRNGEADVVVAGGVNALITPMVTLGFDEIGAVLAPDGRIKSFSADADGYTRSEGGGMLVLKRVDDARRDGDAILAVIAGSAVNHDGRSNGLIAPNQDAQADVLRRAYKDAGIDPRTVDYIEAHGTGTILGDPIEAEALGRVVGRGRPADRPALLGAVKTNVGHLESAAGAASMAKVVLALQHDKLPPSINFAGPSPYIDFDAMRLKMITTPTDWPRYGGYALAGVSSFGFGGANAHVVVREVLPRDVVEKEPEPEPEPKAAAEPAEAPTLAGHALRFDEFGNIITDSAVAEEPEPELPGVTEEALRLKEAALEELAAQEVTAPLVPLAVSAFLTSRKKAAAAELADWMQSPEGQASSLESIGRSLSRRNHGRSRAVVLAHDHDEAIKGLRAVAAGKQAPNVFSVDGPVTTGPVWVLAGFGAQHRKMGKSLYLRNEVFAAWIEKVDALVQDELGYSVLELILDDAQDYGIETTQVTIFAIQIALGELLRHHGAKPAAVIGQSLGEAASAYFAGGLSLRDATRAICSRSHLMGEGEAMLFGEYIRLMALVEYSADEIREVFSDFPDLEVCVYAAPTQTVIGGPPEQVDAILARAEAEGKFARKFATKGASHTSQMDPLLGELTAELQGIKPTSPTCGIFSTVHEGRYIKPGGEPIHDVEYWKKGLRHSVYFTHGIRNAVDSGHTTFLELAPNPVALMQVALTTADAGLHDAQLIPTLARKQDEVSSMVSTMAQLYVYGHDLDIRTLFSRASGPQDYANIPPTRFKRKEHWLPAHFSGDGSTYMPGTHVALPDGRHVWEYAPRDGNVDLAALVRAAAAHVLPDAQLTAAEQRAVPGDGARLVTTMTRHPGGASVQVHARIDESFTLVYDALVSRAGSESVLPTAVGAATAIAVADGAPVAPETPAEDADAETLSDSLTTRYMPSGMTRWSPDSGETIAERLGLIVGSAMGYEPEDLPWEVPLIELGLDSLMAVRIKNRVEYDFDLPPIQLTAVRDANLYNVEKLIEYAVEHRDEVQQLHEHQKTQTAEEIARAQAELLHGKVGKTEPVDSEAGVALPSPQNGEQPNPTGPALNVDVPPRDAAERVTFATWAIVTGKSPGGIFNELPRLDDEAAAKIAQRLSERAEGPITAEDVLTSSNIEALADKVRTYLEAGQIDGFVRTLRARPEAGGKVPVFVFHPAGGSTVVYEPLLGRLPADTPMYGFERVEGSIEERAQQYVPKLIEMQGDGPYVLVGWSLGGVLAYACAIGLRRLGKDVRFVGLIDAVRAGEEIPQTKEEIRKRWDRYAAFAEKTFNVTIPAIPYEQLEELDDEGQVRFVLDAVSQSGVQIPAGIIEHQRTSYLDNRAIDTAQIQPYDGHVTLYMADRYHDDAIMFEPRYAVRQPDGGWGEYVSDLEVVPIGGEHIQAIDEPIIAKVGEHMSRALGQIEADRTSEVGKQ

From ChEMBL document CHEMBL3988442, “University of Dundee, Small-Polar-MMV Screening Library” (2021).

LiHisRS: 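Enzyme assay of histidyl-tRNA synthetase; the read-out is not stated. Target: Histidine-tRNA ligase, Leishmania infantum (UniProt A4I591). Compounds at 30 µM. Higher reads as stronger inhibition (inferred: compounds with an IC50 in retests scored well above the rest). The assay is labelled LdHisRS but filed under L. infantum. Of about 69,000 compounds tested this way, about 410 (0.6%) reached 50% or more in at least one test.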
Pks13 thioesterase: 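Polyketide synthase Pks13, Mycobacterium tuberculosis (UniProt I6X8D2). Enzyme assay of the thioesterase domain of polyketide synthase 13; the read-out is not stated. Compounds at 30 µM. Higher reads as stronger inhibition (inferred from which compounds were picked for retests). Of about 67,000 compounds tested this way, about 300 (0.46%) reached 50% or more in at least one test.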

Results are given as percent effect.
The controls that fix the scale are not given in the record; negative values are as filed.
Compounds were drawn at random from those tested, without regard to their results.

For CC(=O)N1CCOCC2(CN(Cc3ccccn3)CCO2)C1 (stereo not given) the result was LiHisRS: 24.53%; Pks13 thioesterase: -6.305%. For C[C@@H]1CN(C2Cc3ccccc3C2)CC[C@@]1(O)C1CCOCC1 the result was LiHisRS: 17.39%; Pks13 thioesterase: -6.301%. For CCOCCN1CCC(c2cnccn2)CC1 the result was LiHisRS: -1.439%; Pks13 thioesterase: -17.42%. For Cc1cc(CN(C)CC2CC(C3CCCCC3)=NO2)no1 (stereo not given) the result was LiHisRS: 5.333%; Pks13 thioesterase: 5.036%. With c1cnn(CCC2CCN(Cc3ccc4[nH]ccc4c3)CC2)c1 the screen gave LiHisRS: 21.6%; Pks13 thioesterase: -20.47%. For CN1CC(C(=O)NCCc2ccc(F)c(Br)c2)CC1=O (stereo not given) the result was LiHisRS: -32.53%; Pks13 thioesterase: 3.713%.

For CN1CC(=O)N(c2ccsc2)CC12CCN(Cc1cnn(C)c1)C2 (stereo not given) the result was LiHisRS: 20.97%; Pks13 thioesterase: 38.02%. COCCCN(Cc1ccc(F)cc1Cl)C1CCS(=O)(=O)C1 (stereo not given) gave LiHisRS: 13.16%; Pks13 thioesterase: 8.654%. For CCc1cc(C(=O)N2CCC(c3cc4ncccc4cn3)CC2)on1 the result was LiHisRS: -3.158%; Pks13 thioesterase: 16.06%. CC(Cn1ccnc1)NC(=O)N1CCN(Cc2ccncc2)CC1 (stereo not given) read LiHisRS: 17.86%; Pks13 thioesterase: -35.56%. COc1ccc(C(=O)O)cc1-c1cccc(C(C)N(C)C)c1 (stereo not given) gave LiHisRS: 18.31%; Pks13 thioesterase: -25.09%. CN(CCO)c1ncc(-c2ccc(NC(=O)[C@@H]3CCCCN3)cc2)cn1 read LiHisRS: 17.14%; Pks13 thioesterase: 20.2%.

For CN(C)CCNC(=O)c1cc2n(n1)CCN(C(=O)CC(C)(C)C)C2 the result was LiHisRS: 3.226%; Pks13 thioesterase: -8.99%. With CC(=O)N1CCC(c2cncc(N3CCC(O)C3)n2)CC1 (stereo not given) the screen gave LiHisRS: 15.6%; Pks13 thioesterase: 25.41%. Cc1nc2cc(=O)[nH]n2c(C)c1CC(=O)NCc1ccoc1 gave LiHisRS: 18.35%; Pks13 thioesterase: -2.085%. Result for CCn1c(CN(C)C)nnc1C1CCN(Cc2ccccn2)CC1 was LiHisRS: 7.2%; Pks13 thioesterase: -0.3043%. With CC(C)c1ncc2c(n1)CN(Cc1nc(-c3cccnc3)no1)CC2 the screen gave LiHisRS: 30.36%; Pks13 thioesterase: 4.361%. CCn1nnc2c1C(COCCN(C)C)CN(Cc1ccc(C)s1)C2 (stereo not given) gave LiHisRS: -11.11%; Pks13 thioesterase: -18.97%.

O=C(Nc1cnccn1)[C@@H]1COC[C@H]2CN(C3CCCC3)C[C@H]21 gave LiHisRS: 17.31%; Pks13 thioesterase: -4.418%. Cc1cnn(-c2ccc(S(=O)(=O)N(C)CC(C)(CO)CO)cc2F)c1 gave LiHisRS: 19.18%; Pks13 thioesterase: -11.16%. O=C1CCCc2[nH]c(=O)c(C(=O)N(CC3CCCCC3)C3CC3)cc21 gave LiHisRS: 15.56%; Pks13 thioesterase: -14.2%. Cc1ccc(CNC(=O)c2ccc(F)cc2)o1 gave LiHisRS: 14.94%; Pks13 thioesterase: -12.11%. Cc1ccc(CCC(=O)N2CCCC(n3cncn3)C2)c(C)c1 (stereo not given) read LiHisRS: 14.86%; Pks13 thioesterase: -16.48%. Fc1ccc(CNCC2Cn3nncc3CO2)cc1 (stereo not given) read LiHisRS: 14%; Pks13 thioesterase: -34.13%.

With CSc1ncc(CN(C)C(C)c2cccnc2)cn1 (stereo not given) the screen gave LiHisRS: 15.29%; Pks13 thioesterase: -2.131%. CC(c1ccc(F)cc1)N1CCN(Cc2ccc(C#N)cc2)CC1 (stereo not given) read LiHisRS: 14.29%; Pks13 thioesterase: -11.38%. Cc1n[nH]c2c1C(c1ccc(O)cc1)SCC(=O)N2 (stereo not given) read LiHisRS: 16.3%; Pks13 thioesterase: -26.55%. Result for CCn1ncc2c1CCCC2NCc1ccc(OC)cc1OC (stereo not given) was LiHisRS: 5.085%; Pks13 thioesterase: -9.186%. Cc1nn(C)cc1C(=O)N1CCC(CSc2ccccc2)C1 (stereo not given) read LiHisRS: 10.96%; Pks13 thioesterase: -15.15%. Cc1n[nH]c(C2CN(C(=O)CCOCC(F)(F)F)CCO2)n1 (stereo not given) gave LiHisRS: 11.96%; Pks13 thioesterase: -14.48%.

CC1(C)CN=C(N2CCN(CC3CCOC3)CC2)S1 (stereo not given) read LiHisRS: 6.122%; Pks13 thioesterase: -8.717%. For CC(C)=CCN1CCN(C(C)c2cccnc2)CC1 (stereo not given) the result was LiHisRS: 17.2%; Pks13 thioesterase: -9.325%. Result for CN(C)c1cc2c(nn1)CCN(C(=O)c1cc3ccccc3[nH]c1=O)C2 was LiHisRS: 15.79%; Pks13 thioesterase: -14.67%.

Once more, the final 3:

CC1(C)CN=C(N2CCN(CC3CCOC3)CC2)S1 (stereo not given) read LiHisRS: 6.122%; Pks13 thioesterase: -8.717%.
CC(C)=CCN1CCN(C(C)c2cccnc2)CC1 (stereo not given) read LiHisRS: 17.2%; Pks13 thioesterase: -9.325%.
CN(C)c1cc2c(nn1)CCN(C(=O)c1cc3ccccc3[nH]c1=O)C2 read LiHisRS: 15.79%; Pks13 thioesterase: -14.67%.